Laboratory results taken from PubChem BioAssay AID1347076 (National Center for Advancing Translational Sciences (NCATS), 2019).
Screen size: about 400,000 compounds; about 13,000 (3.2%) were called active. Inconclusive results, whose numbers are uncertain, are shown with a selection of clear calls. The call rests on the fitted dose curve; in most records, active means well fitted cell-killing curve with a large enough effect; inconclusive means small, poorly fitted or top-dose-only effect, or effect the other way; inactive means flat fitted curve, though single readings scatter. Potencies beside an inconclusive call are fits to weak or partial responses and may not hold up.

experiment: qHTS assay for MDR1-selective chemotherapeutics: Primary screen using the drug-selected MDR subline cells KB-V1; settings: KB-V1 MDR cells viability, CellTiter-Glo, 72 h; activity change, negative = cytotoxicity: at 46.1 µM (top of the series); further: nearly all actives have a fitted effect of over 60% in size
Summary of the method: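 In this primary screen, KB-V1 cells overexpressing P-gp are incubated with library compounds (lowest to highest concentration) for 72 h at 37 degrees C before a luminescent ATP viability read.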
On the % scale 0 is the no-effect control and ±100 the full control effect; potency means the concentration at half of the fitted maximal effect.

With `Cc1[nH]n(-c2ccccc2)c(=O)c1/C=N/n1c(C)nc2ccccc2c1=O` as the compound, how does the Potency read?
Its Potency is inconclusive: 18.4 µM [cytotoxic, single point].

For `COc1ccc(-c2oc3ncnc(NCCCN4CCOCC4)c3c2-c2ccc(OC)cc2)cc1`, which Potency is on record?
Its Potency is active: 18.4 µM.

Which “activity change, negative = cytotoxicity” value does the source give for `CCCCNC(=O)Cn1c(=O)cc(C)c2c(C)nn(-c3ccc(CC)cc3)c21` here?
Its value is inactive: -6.28%.

For `CCOc1ccc(-n2nnnc2-c2nc3ccccc3s2)cc1`, which Potency is on record?
The Potency was inconclusive: 20.6 µM [cytotoxic, partial curve].

Which Potency does the source give for `Cc1cc(N)ccc1N1CCCC1` here?
Its Potency is inconclusive: 0.013 µM [rising, full curve].

For `CCOC(=O)C1(Cc2ccccc2)CCCN(C(=O)c2cn[nH]c2)C1` (stereo unspecified), which “activity change, negative = cytotoxicity” value is on record?
The value was inactive: 15.6%.

With `CC1(C)CCSC(/C=C/c2ccccc2)=N1` as the compound, how does the Potency read?
Its Potency is inconclusive: 32.6 µM [cytotoxic, single point].

With `CCN(C(=O)c1ccc(NC(C)=O)cc1)c1ccccc1C` as the compound, how does the “activity change, negative = cytotoxicity” value read?
Its value is inactive: 10.7%.

With `COC(C[C@H](O)C[C@H](O)[C@H](C)OCc1ccccc1)OC` as the compound, how does the Potency read?
The Potency was inconclusive: 20.6 µM [rising, single point].

Which Potency does the source give for `O=C(Nc1ccc2c(c1)OCO2)c1cc(Cl)ccn1` here?
The Potency was inconclusive: 23.1 µM [cytotoxic, partial curve, poor fit].

For `CC(C)OC(=O)C(CC(=O)O)NCc1ccccc1` (stereo unspecified), which “activity change, negative = cytotoxicity” value is on record?
Its value is inactive: 0.84%.

For `O=C(Nc1cc(S(=O)(=O)N2CCOCC2)ccc1N1CCOCC1)c1cccc(S(=O)(=O)N2CCCCC2)c1`, which “activity change, negative = cytotoxicity” value is on record?
Its value is inactive: -3.63%.

With `COc1cccc(-n2cc(C(=O)Oc3cccc(C(F)(F)F)c3)c3ccccc3c2=O)c1` as the compound, how does the “activity change, negative = cytotoxicity” value read?
Its value is inactive: 51.5%.

Which Potency does the source give for `COc1ccc(/C=C/C(=O)OCC(=O)Nc2ccc3[nH]c(=O)[nH]c3c2)cc1OC` here?
Its Potency is inconclusive: 32.6 µM [rising, single point].

With `CCc1ccc(NC(=O)C(=O)NCCN2CCN(C(=O)c3ccc(OC)cc3)CC2)cc1` as the compound, how does the Potency read?
The Potency was inconclusive: 2.91 µM [cytotoxic, partial curve].

Which “activity change, negative = cytotoxicity” value does the source give for `O=C(CC1C(=O)N(c2ccc(F)cc2)C(=O)N1Cc1ccc2c(c1)OCO2)Nc1ccc(F)cc1` (stereo unspecified) here?
Its value is inactive: 5.37%.

Which “activity change, negative = cytotoxicity” value does the source give for `COc1ccc(CCN(C(=O)c2ccc(F)cc2)C2=CC3CCC(C2)N3C)cc1OC` (stereo unspecified) here?
The value was inactive: -33.2%.

For `S=C(NC1CCCCC1)NN(c1ccccc1)c1ccccc1`, which Potency is on record?
Its Potency is inconclusive: 11.6 µM [cytotoxic, partial curve].

With `Cc1cc(Cl)c(S(=O)(=O)N2CCN(c3ccc(F)cc3)CC2)cc1OCC(=O)NC1CCCCC1` as the compound, how does the Potency read?
Its Potency is inconclusive: 0.731 µM [cytotoxic, full curve, poor fit].

For `COc1ccc(NC(=O)CSc2nc(O)cc(=O)n2-c2ccc(OC)cc2)cc1`, which Potency is on record?
The Potency was inconclusive: 2.59 µM [rising, full curve, poor fit].

For `CCCCCCCCCCCCCC(=O)Nc1ccc(/C=C/c2ccnc3ccccc23)cc1`, which “activity change, negative = cytotoxicity” value is on record?
Its value is inactive: -6.2%.

With `COc1ccc(S(=O)(=O)N2CCOCC2)cc1NC(=O)CN1CCCC1` as the compound, how does the “activity change, negative = cytotoxicity” value read?
The value was inactive: -11.3%.

For `COc1ccc(OC)c(NC(=O)C2(C)CCN2CCOc2ccccc2)c1` (stereo unspecified), which Potency is on record?
The Potency was inconclusive: 9.2 µM [cytotoxic, partial curve, poor fit].

For `COc1cc(C(=O)NCCc2c[nH]c3ccccc23)ccc1OCc1c(C)noc1C`, which Potency is on record?
The Potency was inconclusive: 18.4 µM [cytotoxic, single point].

Which Potency does the source give for `COc1ccc(CN2CCN(C(=O)c3c(-c4ccccc4)noc3C)CC2)cc1F` here?
The Potency was inconclusive: 29.1 µM [cytotoxic, single point].

Which Potency does the source give for `Cc1c(N=NC2=C(O)CCCC2=O)c(=O)n(-c2ccccc2)n1C` here?
Its Potency is inconclusive: 0.517 µM [cytotoxic, full curve, poor fit].

Which “activity change, negative = cytotoxicity” value does the source give for `COc1cccc(CNC(=O)CN2C(=O)CCCc3ccccc32)c1OC` here?
The value was inactive: 0%.

For `O=C1CC(c2ccccc2)CC(O)=C1C=Nc1ccccc1O` (stereo unspecified), which Potency is on record?
The Potency was inconclusive: 25.9 µM [rising, single point].

With `COc1ccc(C(=O)N2CCN(c3ncnc4c(-c5ccccc5)nsc34)CC2)cc1` as the compound, how does the “activity change, negative = cytotoxicity” value read?
Its value is inactive: -24.1%.

Which Potency does the source give for `CCS(=O)(=O)c1ccc2oc(SCC(=O)NCCc3ccccc3)nc2c1` here?
Its Potency is inconclusive: 14.6 µM [cytotoxic, single point].

For `Cc1ccc(N2CCN(CCc3nc4cc(NC(=O)c5ccco5)ccc4n3C)CC2)cc1`, which Potency is on record?
The Potency was active: 4.11 µM.

For `Cn1ncc(Cl)c1C(=O)N1CCN(c2ccc(Cl)c(Cl)c2)CC1`, which Potency is on record?
Its Potency is inconclusive: 16.4 µM [cytotoxic, partial curve].

Which Potency does the source give for `Nc1c(-c2nc(-c3cccs3)no2)nnn1-c1cccc(F)c1` here?
Its Potency is inconclusive: 29.1 µM [rising, single point].

Which Potency does the source give for `CCOC(=O)c1cnc2c(C)cccc2c1NCCc1ccc(OC)c(OC)c1` here?
Its Potency is inconclusive: 18.4 µM [cytotoxic, partial curve, poor fit].

Which “activity change, negative = cytotoxicity” value does the source give for `O=C(COC(=O)/C=C/c1ccccc1Cl)NC1CCCC1` here?
Its value is inactive: 0.856%.

Which “activity change, negative = cytotoxicity” value does the source give for `Cc1ccccc1-c1nc(C(N)=O)c2c(n1)n(-c1ccc3c(c1)OCO3)c(=O)n2C` here?
The value was inactive: 9.87%.

For `O=C(Nc1ccccc1N1CCOCC1)C1CCN(S(=O)(=O)c2ccc(F)cc2)CC1`, which Potency is on record?
Its Potency is inconclusive: 4.61 µM [cytotoxic, full curve].

With `Nc1ccncc1N` as the compound, how does the Potency read?
Its Potency is inconclusive: 32.6 µM [cytotoxic, partial curve, poor fit].

With `CCn1c(SCC(=O)N(C)c2c(N)n(Cc3ccccc3)c(=O)[nH]c2=O)nnc1-c1cccs1` as the compound, how does the “activity change, negative = cytotoxicity” value read?
The value was inactive: 1.52%.

Which “activity change, negative = cytotoxicity” value does the source give for `O=C(NC(=O)N1CCN(c2ccc([N+](=O)[O-])cn2)CC1)c1c(Cl)cccc1Cl` here?
The value was inactive: -3.54%.

For `Cc1ccccc1-n1c(-c2ccncc2)n[nH]c1=S`, which “activity change, negative = cytotoxicity” value is on record?
The value was inactive: 11%.

With `CN(C)CCN=c1cc(-c2ccccc2)oc2ccc(Cl)cc12` as the compound, how does the Potency read?
The Potency was inconclusive: 20.6 µM [cytotoxic, single point].

Which Potency does the source give for `Cc1ccc(S(=O)(=O)N2CCCC2C(=O)NCc2ccc3c(c2)OCO3)cc1` (stereo unspecified) here?
The Potency was inconclusive: 14.6 µM [cytotoxic, partial curve].

For `CN(C)CCCNc1ncnc2c1cnn2-c1ccccc1`, which Potency is on record?
Its Potency is inconclusive: 29.1 µM [rising, partial curve, poor fit].

Which Potency does the source give for `CC(C)C(=O)Nc1cc(=O)[nH]c2ncnn12` here?
The Potency was inconclusive: 25.9 µM [rising, single point].

For `Cc1nc(S(=O)(=O)c2cccc(Cl)c2)nc2c1CCC2`, which Potency is on record?
Its Potency is inconclusive: 23.1 µM [cytotoxic, single point].
